The list is a part of this screen's results and no random one: it gathers tests that were run many times, whatever their T/C, doses with no T/C, and many T/C values between a quarter and a half above the control. Further doses and runs are listed elsewhere. T/C: endpoint of the treated group in % of that of the vehicle group. Some entries give survivors of the animals treated and no T/C: the source holds a T/C of zero for them, seemingly a mark for toxic or unscored doses. Some doses without a T/C left all or most animals alive at the check, yet need not have been tolerated: survival well below the control is almost never listed, so the zero probably covers shortened survival too. Survivors were counted at the toxicity check, usually on the fifth day, unless a day is given; later deaths do not show. Schedules are NCI's codes, read here as Q, the interval in days (D) or hours (H), X, the number of doses. Some entries were tested several times; their values stand side by side, smallest first. Signs of the kind (2×) say how often a value occurs here. Some schedule codes hold Z or #, which are not explained here. Where survival is the endpoint, this PubChem deposit counts one and a half times the control or more as active, and values a quarter to a half above the control carry no call in these data; other NCI protocols may use other cut-offs. Some T/C values carry the count of animals alive at the toxicity check (mostly the fifth day); where none is given, no animal had died by that day.
System: B6C3F1 mice, intracerebral ependymoblastoma, median survival T/C
Test: NCI In Vivo Anticancer Drug Screen. Data for tumor model Ependymoblastoma (intracerebral) in B6C3F1 mice
Settings: T/C endpoint: median survival time, higher T/C = longer survival
Protocol: The antitumor activity of compounds was measured in mice bearing transplantable tumors. Survival or tumor size were measured and the results are expressed as the measurement made in the treated group (T) divided by the measurement made in the vehicle treated control group (C). The tumor model used in this assay is Ependymoblastoma (intracerebral) in B6C3F1 mice

[1] = dose: 16.0 mg/kg/injection, schedule: Q01DX005 (ip), vehicle: saline with Tween-80
[2] = dose: 64.0 mg/kg/injection, schedule: Q01DX005 (ip), vehicle: saline with Tween-80
[3] = dose: 128.0 mg/kg/injection, schedule: Q01DX005 (ip), vehicle: saline with Tween-80
[4] = dose: 32.0 mg/kg/injection, schedule: Q01DX001 (ip), vehicle: saline
[5] = dose: 64.0 mg/kg/injection, schedule: Q01DX001 (ip), vehicle: saline
[6] = dose: 128.0 mg/kg/injection, schedule: Q01DX005 (ip), vehicle: saline

**Q.** What does the source list for `CN(N=O)C(=O)Nc1c[nH]c(=O)[nH]c1=O`?
**A.** T/C (dose: 8.0 mg/kg/injection, schedule: Q01DX005 (ip), vehicle: saline with Tween-80): 125 % of control; T/C [1]: 128 % of control; T/C (dose: 32.0 mg/kg/injection, schedule: Q01DX005 (ip), vehicle: saline with Tween-80, evaluated on day 40): 142 % of control; T/C (dose: 32.0 mg/kg/injection, schedule: Q01DX005 (ip), vehicle: saline with Tween-80, evaluated on day 60): 127 % of control; T/C [2]: 143 % of control [9 of 10 alive]; survivor count [2]: 10 of 10; survivor count [3]: 9 of 10; survivor count (dose: 256.0 mg/kg/injection, schedule: Q01DX005 (ip), vehicle: saline with Tween-80): 0 of 10

**Q.** Which survivor count (dose: 256.0 mg/kg/injection, schedule: Q01DX005 (ip), vehicle: water) does the source give for `c1cc2n(n1)CCN2` here?
**A.** 10 of 10

**Q.** What about the T/C (dose: 256.0 mg/kg/injection, schedule: Q#A X004 (ip), vehicle: water) of the same compound?
**A.** 130 % of control

**Q.** And the survivor count (dose: 512.0 mg/kg/injection, schedule: Q01DX005 (ip), vehicle: water)?
**A.** 0 of 10

**Q.** What about the survivor count (dose: 512.0 mg/kg/injection, schedule: Q01DX005 (oral), vehicle: water) of the same compound?
**A.** 9 of 10

**Q.** What about the survivor count (dose: 512.0 mg/kg/injection, schedule: Q#A X002 (ip), vehicle: water) of the same compound?
**A.** 0 of 10

**Q.** What about the survivor count (dose: 512.0 mg/kg/injection, schedule: Q#A X004 (ip), vehicle: water) of the same compound?
**A.** 6 of 10

**Q.** What about the survivor count (dose: 512.0 mg/kg/injection, schedule: Q#A X006 (ip), vehicle: water) of the same compound?
**A.** 10 of 10

**Q.** What about the survivor count (dose: 1024.0 mg/kg/injection, schedule: Q01DX001 (ip), vehicle: water) of the same compound?
**A.** 1 of 10

**Q.** What about the survivor count (dose: 1024.0 mg/kg/injection, schedule: Q01DX001 (oral), vehicle: water) of the same compound?
**A.** 3 of 10 and 6 of 10

**Q.** What about the survivor count (dose: 1024.0 mg/kg/injection, schedule: Q01DX005 (oral), vehicle: water) of the same compound?
**A.** 0 of 10

**Q.** What about the survivor count (dose: 1024.0 mg/kg/injection, schedule: Q#A X002 (ip), vehicle: water) of the same compound?
**A.** 0 of 10

**Q.** What about the survivor count (dose: 1024.0 mg/kg/injection, schedule: Q#A X004 (ip), vehicle: water) of the same compound?
**A.** 0 of 10

**Q.** Which results are given for `O=P1(N(CCCl)CCCl)NCCCO1` (stereo unspecified)?
**A.** T/C (dose: 80.0 mg/kg/injection, schedule: Q01DX001 (ip), vehicle: saline): 129 % of control; T/C (dose: 160.0 mg/kg/injection, schedule: Q01DX001 (ip), vehicle: saline): 126 % of control; survivor count (dose: 640.0 mg/kg/injection, schedule: Q01DX001 (ip), vehicle: saline): 3 of 10

**Q.** What does the source list for `NC(C/[N+]([O-])=N/O)C(=O)O` (stereo unspecified)?
**A.** survivor count (dose: 100.0 mg/kg/injection, schedule: Q01DX009 (ip), vehicle: Klucel (hydroxypropylcellulose) (HPC)): 10 of 10; survivor count [3]: 10 of 10

**Q.** What does the source list for `CC(=O)O[C@H]1C(=O)[C@@]2(C)[C@H]([C@H](OC(=O)c3ccccc3)[C@]3(O)C[C@H](OC(=O)[C@H](O)[C@@H](NC(=O)c4ccccc4)c4ccccc4)C(C)=C1C3(C)C)[C@]1(OC(C)=O)CO[C@@H]1C[C@@H]2O`?
**A.** survivor count (dose: 20.0 mg/kg/injection, schedule: Q01DX005 (ip), vehicle: Klucel (hydroxypropylcellulose) (HPC)): 8 of 9; survivor count (dose: 40.0 mg/kg/injection, schedule: Q01DX005 (ip), vehicle: Klucel (hydroxypropylcellulose) (HPC)): 8 of 10; survivor count (dose: 80.0 mg/kg/injection, schedule: Q01DX005 (ip), vehicle: Klucel (hydroxypropylcellulose) (HPC)): 10 of 10

**Q.** For `COS(C)(=O)=O`, which T/C (dose: 8.0 mg/kg/injection, schedule: Q01DX005 (ip), vehicle: saline) is on record?
**A.** 126 % of control

**Q.** What about the T/C [4] of the same compound?
**A.** 97 [survivors not given], 104 [survivors not given], 105 [survivors not given], 109 % of control

**Q.** What about the T/C [5] of the same compound?
**A.** 95 [survivors not given], 99 [survivors not given], 106, 109 % of control [survivors not given]

**Q.** What about the T/C (dose: 128.0 mg/kg/injection, schedule: Q01DX001 (ip), vehicle: saline) of the same compound?
**A.** 103 [survivors not given], 104 [survivors not given], 111, 112 % of control [survivors not given]

**Q.** And the T/C (dose: 256.0 mg/kg/injection, schedule: Q01DX001 (ip), vehicle: saline)?
**A.** 114 [survivors not given], 117 [survivors not given], 137 % of control [6 of 10 alive]

**Q.** Which results are given for `Nc1nc([Se])c2ncn(C3OC(CO)C(O)C3O)c2n1` (stereo unspecified)?
**A.** T/C [1]: 129 % of control; T/C (dose: 16.0 mg/kg/injection, schedule: Q01DX005 (ip), vehicle: saline): 127 % of control; T/C (dose: 32.0 mg/kg/injection, schedule: Q01DX005 (ip), vehicle: saline with Tween-80): 129 % of control [9 of 10 alive]; T/C (dose: 32.0 mg/kg/injection, schedule: Q01DX005 (ip), vehicle: saline): 125 % of control [9 of 10 alive]; survivor count (dose: 64.0 mg/kg/injection, schedule: Q01DX005 (ip), vehicle: Klucel (hydroxypropylcellulose) (HPC)): 10 of 10; survivor count [2]: 5 of 10; survivor count (dose: 64.0 mg/kg/injection, schedule: Q01DX005 (ip), vehicle: saline): 2 of 10 and 7 of 10 (2×); survivor count (dose: 128.0 mg/kg/injection, schedule: Q01DX005 (ip), vehicle: Klucel (hydroxypropylcellulose) (HPC)): 0 of 10; survivor count [6]: 0 of 10 (2×)

**Q.** Which T/C (dose: 32.0 mg/kg/injection, schedule: Q01DX005 (ip), vehicle: saline, evaluated on day 45) does the source give for `C[CH2][Ge]1([CH2]C)[CH2]CC2(CCN(CCCN(C)C)C2)C[CH2]1` here?
**A.** 105 and 111 % of control

**Q.** And the T/C (dose: 32.0 mg/kg/injection, schedule: Q01DX005 (ip), vehicle: saline, evaluated on day 60)?
**A.** 103 [8 of 10 alive], 108, 115, 118 % of control

**Q.** What about the T/C (dose: 64.0 mg/kg/injection, schedule: Q01DX005 (ip), vehicle: saline, evaluated on day 45) of the same compound?
**A.** 96 and 111 % of control

**Q.** And the T/C (dose: 64.0 mg/kg/injection, schedule: Q01DX005 (ip), vehicle: saline, evaluated on day 60)?
**A.** 94 [7 of 10 alive], 103, 103 [8 of 10 alive], 107 % of control [9 of 10 alive]

**Q.** What about the survivor count [6] of the same compound?
**A.** 0 of 10, 1 of 10, 2 of 10, 4 of 10

**Q.** And the survivor count (dose: 256.0 mg/kg/injection, schedule: Q01DX005 (ip), vehicle: saline)?
**A.** 0 of 10 (2×)

**Q.** What about the survivor count (dose: 512.0 mg/kg/injection, schedule: Q01DX005 (ip), vehicle: saline) of the same compound?
**A.** 0 of 10 (2×)

**Q.** What does the source list for `O=C(O)CCCc1ccc(N(CCCl)CCCl)cc1`?
**A.** T/C (dose: 2.0 mg/kg/injection, schedule: Q01DX005 (ip), vehicle: saline with Tween-80): 128 % of control; T/C (dose: 4.0 mg/kg/injection, schedule: Q01DX005 (ip), vehicle: saline with Tween-80): 135 % of control; survivor count (dose: 16.0 mg/kg/injection, schedule: Q01DX005 (ip), vehicle: Klucel (hydroxypropylcellulose) (HPC)): 10 of 10; survivor count (dose: 32.0 mg/kg/injection, schedule: Q01DX005 (ip), vehicle: Klucel (hydroxypropylcellulose) (HPC)): 9 of 10

**Q.** With `N=C(N)SCc1c2ccccc2c(CSC(=N)N)c2ccccc12` as the compound, how does the T/C (dose: 5.0 mg/kg/injection, schedule: Q01DX001 (ip), vehicle: Klucel (hydroxypropylcellulose) (HPC)) read?
**A.** 97 [survivors not given], 101 [survivors not given], 102, 109 % of control [survivors not given]

**Q.** What about the T/C (dose: 10.0 mg/kg/injection, schedule: Q01DX001 (ip), vehicle: Klucel (hydroxypropylcellulose) (HPC)) of the same compound?
**A.** 98 [survivors not given], 102, 103 [survivors not given], 105 % of control [survivors not given]

**Q.** And the T/C (dose: 20.0 mg/kg/injection, schedule: Q01DX001 (ip), vehicle: Klucel (hydroxypropylcellulose) (HPC))?
**A.** 95 [survivors not given], 100 [survivors not given], 101 [survivors not given], 107 % of control

**Q.** And the T/C (dose: 40.0 mg/kg/injection, schedule: Q01DX001 (ip), vehicle: Klucel (hydroxypropylcellulose) (HPC))?
**A.** 97, 102 [survivors not given], 105 [survivors not given], 109 % of control [survivors not given]

**Q.** With `CCC1=C(c2ccc(OC)cc2)CCC(C(=O)O)C1C` (stereo unspecified) as the compound, how does the T/C (dose: 8.0 mg/kg/injection, schedule: Q01DX001 (ip), vehicle: saline) read?
**A.** 90 [9 of 10 alive], 95 [survivors not given], 97 [survivors not given], 100 % of control [survivors not given]

**Q.** What about the T/C (dose: 16.0 mg/kg/injection, schedule: Q01DX001 (ip), vehicle: saline) of the same compound?
**A.** 97 [survivors not given], 99, 100 [survivors not given], 107 % of control [survivors not given]

**Q.** And the T/C [4]?
**A.** 100, 102 [survivors not given], 103 % of control [survivors not given]

**Q.** And the T/C [5]?
**A.** 100 [survivors not given], 101, 102 [survivors not given], 103 % of control [survivors not given]
